Assay results reported in publication doi:10.1101/2023.03.08.531793.
These are yes or no findings as the source states them, for the method shown. Binding seen in cells or lysates may run through a third protein. Some results given as binding are weak or reduced against the parent protein; the word gives no strength. Where a sequence is shown, tags or fusion partners need not be part of it.

The chains behind the UniProt entries cited, without tags or fusion partners.
UniProt Q8LDC8: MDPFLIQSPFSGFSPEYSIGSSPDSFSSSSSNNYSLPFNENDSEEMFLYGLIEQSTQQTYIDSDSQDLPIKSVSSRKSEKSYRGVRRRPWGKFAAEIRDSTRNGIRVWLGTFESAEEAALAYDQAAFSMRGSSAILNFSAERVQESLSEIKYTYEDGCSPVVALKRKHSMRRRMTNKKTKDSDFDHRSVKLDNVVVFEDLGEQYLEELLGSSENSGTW

Key:
[1] = target: HA-ERF1 (Arabidopsis thaliana) (UniProt Q8LDC8); test: co-IP
[2] = target: nYFP-ERF1 (the N-terminal part of YFP fused with ERF1) (Arabidopsis thaliana) (UniProt Q8LDC8); test: split reporter

| Binder | binding [1] | binding [2] |
| --- | --- | --- |
| Flag-ABI3 (protein, UniProt Q01593 1-720) MKSLHVAANAGDLAEDCGILGGDADDTVLMDGIDEVGREIWLDDHGGDNNHVHGHQDDDLIVHHDPSIFYGDLPTLPDFPCMSSSSSSSTSPAPVNAIVSSASSSSAASSSTSSAASWAILRSDGEDPTPNQNQYASGNCDDSSGALQSTASMEIPLDSSQGFGCGEGGGDCIDMMETFGYMDLLDSNEFFDTSAIFSQDDDTQNPNLMDQTLERQEDQVVVPMMENNSGGDMQMMNSSLEQDDDLAAVFLEWLKNNKETVSAEDLRKVKIKKATIESAARRLGGGKEAMKQLLKLILEWVQTNHLQRRRTTTTTTNLSYQQSFQQDPFQNPNPNNNNLIPPSDQTCFSPSTWVPPPPQQQAFVSDPGFGYMPAPNYPPQPEFLPLLESPPSWPPPPQSGPMPHQQFPMPPTSQYNQFGDPTGFNGYNMNPYQYPYVPAGQMRDQRLLRLCSSATKEARKKRMARQRRFLSHHHRHNNNNNNNNNNQQNQTQIGETCAAVAPQLNPVATTATGGTWMYWPNVPAVPPQLPPVMETQLPTMDRAGSASAMPRQQVVPDRRQGWKPEKNLRFLLQKVLKQSDVGNLGRIVLPKKEAETHLPELEARDGISLAMEDIGTSRVWNMRYRFWPNNKSRMYLLENTGDFVKTNGLQEGDFIVIYSDVKCGKYLIRGVKVRQPSGQKPEAPPSSAATKRQNKSQRNINNNSPSANVVVASPTSQTVK | binds | – |
| cYFP-ABI3 (the C-terminal part of YFP fused with ABI3) (protein, UniProt Q01593 1-720) MKSLHVAANAGDLAEDCGILGGDADDTVLMDGIDEVGREIWLDDHGGDNNHVHGHQDDDLIVHHDPSIFYGDLPTLPDFPCMSSSSSSSTSPAPVNAIVSSASSSSAASSSTSSAASWAILRSDGEDPTPNQNQYASGNCDDSSGALQSTASMEIPLDSSQGFGCGEGGGDCIDMMETFGYMDLLDSNEFFDTSAIFSQDDDTQNPNLMDQTLERQEDQVVVPMMENNSGGDMQMMNSSLEQDDDLAAVFLEWLKNNKETVSAEDLRKVKIKKATIESAARRLGGGKEAMKQLLKLILEWVQTNHLQRRRTTTTTTNLSYQQSFQQDPFQNPNPNNNNLIPPSDQTCFSPSTWVPPPPQQQAFVSDPGFGYMPAPNYPPQPEFLPLLESPPSWPPPPQSGPMPHQQFPMPPTSQYNQFGDPTGFNGYNMNPYQYPYVPAGQMRDQRLLRLCSSATKEARKKRMARQRRFLSHHHRHNNNNNNNNNNQQNQTQIGETCAAVAPQLNPVATTATGGTWMYWPNVPAVPPQLPPVMETQLPTMDRAGSASAMPRQQVVPDRRQGWKPEKNLRFLLQKVLKQSDVGNLGRIVLPKKEAETHLPELEARDGISLAMEDIGTSRVWNMRYRFWPNNKSRMYLLENTGDFVKTNGLQEGDFIVIYSDVKCGKYLIRGVKVRQPSGQKPEAPPSSAATKRQNKSQRNINNNSPSANVVVASPTSQTVK | – | binds |
